This is one part of the list. Shown are side measurements of this screen, not its main read-out; they come without a call. Compounds called inactive in the main read-out are mostly missing here. Words in brackets tell the shape of the fitted curve; partial curves, single points and poor fits give uncertain potencies.
Experiment: qHTS Assay for Lipid Storage Modulators in Drosophila S3 Cells;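 as to cell number change: cells counted by Cell Tracker Red CMTPX staining in the red channel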
Conditions: BODIPY lipid droplet fluorescence, 18-24 h; for cell number change: measured here: cell count max response, cells fed with added oleic acid
Outline: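 Drosophila S3 cells loaded with oleic acid (400 uM, as added) and compounds at several concentrations; lipid droplets imaged by 488-nm laser-scanning cytometry, 500–530 nm intensity and object ratio to cell channel. Percent activity normalized to 20 uM Triacsin C.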

[1] = measured here: lipid fluorescence (Fed channel) AC50, cells fed with added oleic acid
[2] = measured here: cell number channel AC50, cells fed with added oleic acid

Row | Structure (SMILES) | cell number change | AC50 [1] | AC50 [2]
1 | COC(=O)c1c(NC(=O)CCCC(=O)O)sc(C)c1C | 2.7% |  | 
2 | CCCCNc1nc(NC)nc(Cl)c1SC | -20.2% | 0.58 µM [falling, single point] | 
3 | O=C(C1CCN(c2nc(-c3ccccc3)nc3c2CCC3)CC1)N1CCC(O)CC1 | -23.2% | 23.1 µM [falling, partial curve, poor fit] | 
4 | CSc1ccc(C2=CC(=O)C[C@H](c3ccc(F)cc3)C2)cc1 | -1.16% | 0.58 µM [falling, single point] | 
5 | CSc1ncccc1C(=O)N(C)CC(=O)Nc1ccc(Cl)c(C(F)(F)F)c1 | 8.65% |  | 
6 | CC(NC(=O)CN(C)Cc1cccs1)c1ccccc1 (stereo not given) | 24.3% | 0.13 µM [falling, full curve, poor fit] | 
7 | O=C(COC(=O)CC1CCCC1)Nc1ccc(OC(F)F)cc1 | 38.9% |  | 29.1 µM [rising, single point]
8 | CC(=O)N1N=C(c2ccc3nccnc3c2)CC1c1ccccc1 (stereo not given) | -9.21% |  | 
9 | O=c1cnc2cc([N+](=O)[O-])ccc2[nH]1 | 22.3% |  | 
10 | CNS(=O)(=O)c1ccc(N2CCCC2=O)c([N+](=O)[O-])c1 |  | 14.6 µM [falling, partial curve] | 
11 | CCOc1ccc(N(C)c2ccc(/C=C3/SC(=S)NC3=O)cc2)cc1 | -66.7% | 3.26 µM [falling, full curve] | 16.4 µM [falling, single point]
12 | CC(=O)c1c(C)[nH]c(C(=O)NC2=NCCS2)c1C |  | 1.3 µM [falling, partial curve, poor fit] | 
13 | Cc1ccc(C(=O)Oc2cc(N)n(S(=O)(=O)c3ccc(F)cc3)n2)cc1 | 17.1% | 0.58 µM [rising, single point] | 
14 | Cc1cc(C(C)(C)C)cc(C)c1C[n+]1ccc2ccccc2c1 | -60% | 18.4 µM [falling, partial curve] | 20.6 µM [falling, partial curve]
15 | COCCN(C(=O)COC(=O)c1cccs1)c1c(N)n(Cc2ccccc2)c(=O)[nH]c1=O | 5.74% |  | 
16 | O=C(CNc1ccccc1OC(F)F)N1CCc2ccccc21 | -5.89% | 0.13 µM [falling, full curve, poor fit] | 0.13 µM [falling, full curve, poor fit]
17 | COc1cc(C=O)ccc1OCC(=O)Nc1ccccc1N1CCOCC1 |  | 9.2 µM [falling, partial curve, poor fit] | 
18 | CCn1c(SC(C)C)nnc1-c1c[nH]c2ccccc12 | 3.02% |  | 
19 | Nc1ccc(-c2nc3ccc(N)cc3o2)cc1 | -10% | 32.6 µM [rising, single point] | 
20 | Cc1cc(C)nc(SCNC(=O)c2ccc(Cl)cc2)n1 | 52.8% | 25.9 µM [rising, single point] | 20.6 µM [rising, single point]

Row | Structure (SMILES) | cell number change | AC50 [1] | AC50 [2]
21 | O=C(/C=C/c1ccc([N+](=O)[O-])cc1)NCc1cccs1 | -71.8% | 20.6 µM [falling, partial curve, poor fit] | 23.1 µM [falling, partial curve]
22 | COc1ccc(S(=O)(=O)N2CCC(C(N)=O)(N3CCCCC3)CC2)cc1 | -15.8% | 0.411 µM [rising, full curve, poor fit] | 
23 | NC(=S)n1[nH]c(-c2ccc([N+](=O)[O-])cc2)c(N=Nc2cccc([N+](=O)[O-])c2)c1=O | -27.1% |  | 
24 | COC(=O)c1ccc(CSc2ncnc3ccccc23)o1 | 18.7% | 6.51 µM [falling, single point] | 
25 | O=C1C=C(NC(=O)Nc2ccc(Cl)c(Cl)c2)CCC1 | -31% | 6.51 µM [rising, single point] | 0.259 µM [falling, full curve, poor fit]
26 | Cc1cc(C)n(CCCNC(=O)C2CC(=O)N(Cc3ccccc3)C2)n1 (stereo not given) | 113% |  | 7.31 µM [rising, partial curve]
27 | COc1ccc(OC)c(/C=C/C(=O)OCC(=O)N2CCCC2)c1 | 0.313% |  | 0.00517 µM [falling, full curve, poor fit]
28 | Cc1ccc(NS(=O)(=O)c2cc(C(N)=O)ccc2C)cc1 | 40.6% | 1.3 µM [rising, partial curve] | 8.2 µM [rising, partial curve, poor fit]
29 | COC(=O)CC/C(O)=C1\C(=O)CC(C)(C)CC1=Nc1ccccc1OC | 27.5% | 29.1 µM [rising, single point] | 
30 | CCC(=O)c1ccc(OCC(=O)OC(C)C(=O)N2CCc3ccccc32)cc1 (stereo not given) | 22% |  | 
31 | CC(C)c1ccc(NC(=O)CCNS(=O)(=O)c2cccc3nonc23)cc1 | -30.1% |  | 20.6 µM [falling, single point]
32 | CCOC(=O)c1ccccc1NC(=O)COC(=O)CCNS(=O)(=O)c1cccs1 | 24.1% |  | 
33 | Cc1nn(C(C)CC(=O)O)c(C)c1Br (stereo not given) | -103% | 5.8 µM [falling, partial curve] | 25.9 µM [falling, partial curve]
34 | CCC(=O)[C@@]1(C)[C@H](C)C[C@H]2[C@@H]3CCC4=CC(=O)C=C[C@]4(C)[C@H]3[C@@H](O)C[C@@]21C | 63.4% | 1.64 µM [rising, partial curve] | 2.06 µM [rising, full curve]
35 | O=C(Cn1cncn1)N1CCN(c2ccc(F)cc2)CC1 | -17.5% | 0.82 µM [falling, full curve, poor fit] | 
36 | Cc1nn(C)cc1CN(C)Cc1ccc(OCC(O)CN2CCCCC2)cc1 (stereo not given) | 20.2% |  | 
37 | CC(=O)c1cccc(NC(=O)/C(=C/c2ccncc2)NC(=O)c2ccccc2)c1 | 19.2% | 14.6 µM [falling, partial curve, poor fit] | 
38 | Cc1ccc(S(=O)(=O)N2CCOCC2)cc1NC(=O)c1cc([N+](=O)[O-])ccc1N1CCOCC1 | 35.6% | 14.6 µM [rising, partial curve] | 14.6 µM [rising, single point]
39 | CC(=O)c1cccc(S(=O)(=O)N2CCC(C(=O)N(C)Cc3ccc(Cl)s3)CC2)c1 | 7.55% | 4.11 µM [falling, single point] | 
40 | CC12CCC(=O)N1C(C(=O)OCC(=O)Nc1sccc1C#N)CS2 (stereo not given) | 34.1% | 0.731 µM [falling, full curve] | 0.366 µM [rising, full curve]

In the list so far, these have a nitro group on carbon.
Row | Structure (SMILES) | cell number change | AC50 [1] | AC50 [2]
9 | O=c1cnc2cc([N+](=O)[O-])ccc2[nH]1 | 22.3% |  | 
10 | CNS(=O)(=O)c1ccc(N2CCCC2=O)c([N+](=O)[O-])c1 |  | 14.6 µM [falling, partial curve] | 
21 | O=C(/C=C/c1ccc([N+](=O)[O-])cc1)NCc1cccs1 | -71.8% | 20.6 µM [falling, partial curve, poor fit] | 23.1 µM [falling, partial curve]
23 | NC(=S)n1[nH]c(-c2ccc([N+](=O)[O-])cc2)c(N=Nc2cccc([N+](=O)[O-])c2)c1=O | -27.1% |  | 
38 | Cc1ccc(S(=O)(=O)N2CCOCC2)cc1NC(=O)c1cc([N+](=O)[O-])ccc1N1CCOCC1 | 35.6% | 14.6 µM [rising, partial curve] | 14.6 µM [rising, single point]

(next part)

Row | Structure (SMILES) | cell number change | AC50 [1] | AC50 [2]
41 | COc1ccc(NC(=O)Nc2nc3c(s2)CCCC3)cc1 | -31.7% | 32.6 µM [falling, partial curve, poor fit] | 32.6 µM [falling, single point]
42 | O=C(O)Cn1cc(C(=O)C2CC2)c2ccccc21 | -165% |  | 29.1 µM [falling, partial curve]
43 | CCOC(=O)c1ccccc1NC(=O)Cn1cnc2c(oc3ccccc32)c1=O | 5.85% | 4.11 µM [rising, single point] | 0.461 µM [rising, partial curve, poor fit]
44 | CC(=O)N1CC(=O)N(CC(=O)Nc2ccc(Br)cc2)C1=S | -5.04% | 0.206 µM [rising, single point] | 
45 | CCc1c(C(=O)NC(C)C2CCCO2)csc1C (stereo not given) | -28.2% |  | 
46 | Cc1ccc(C(=O)C=CNNC(=O)c2ccccc2)cc1 | -12.2% |  | 
47 | COc1ccc(CCNS(=O)(=O)c2cccc([N+](=O)[O-])c2)cc1 | -5.51% | 0.731 µM [falling, partial curve, poor fit] | 
48 | CNC(=O)c1cc2cc(Br)ccc2s1 | 49.7% | 0.0517 µM [rising, partial curve, poor fit] | 0.206 µM [rising, full curve, poor fit]
49 | COc1ccc(NC(=O)c2cc(F)c(F)cc2Cl)cc1Cl | 20.9% | 3.66 µM [rising, full curve, poor fit] | 
50 | CN(Cc1ccc(F)cc1)S(=O)(=O)c1nnc(NC(=O)c2ccccc2Br)s1 | -5.77% | 6.51 µM [falling, single point] | 
51 | Cc1ccc(-c2nnc(-c3ccc(NC(=O)Cc4cccs4)cc3)o2)cc1 | -8.69% |  | 2.31 µM [falling, single point]
52 | CC(=O)c1c(C)[nH]c(C(=O)Nc2ccc(Cl)cc2F)c1C | 14% | 0.13 µM [falling, full curve] | 
53 | COc1ncccc1C(=O)NC1CCCc2c1cnn2-c1ccc(C)c(C)c1 (stereo not given) | -25.5% | 0.651 µM [falling, partial curve, poor fit] | 0.291 µM [falling, full curve]
54 | Cc1cc(C)nc(N/N=C/c2ccncc2)n1 | -13.9% |  | 0.231 µM [falling, full curve, poor fit]
55 | COc1ccccc1NC(=S)NC(NC(C)=O)C(Cl)(Cl)Cl (stereo not given) | -5.66% |  | 
56 | O=C(Nc1cccnc1)c1c(O)c2cccc3c2n(c1=O)CC3 | -5.68% | 25.9 µM [rising, single point] | 
57 | NC1=NC(=O)/C(=C/c2ccc(Br)cc2)S1 | 8.39% | 0.651 µM [falling, full curve, poor fit] | 
58 | O=C(CCn1cnc2ccccc2c1=O)Nc1nc(-c2ccc(Br)cc2)cs1 | -36.6% | 0.731 µM [falling, full curve, poor fit] | 0.731 µM [falling, full curve, poor fit]
59 | COC(=O)c1sc(S(=O)(=O)N2CCCCC2)c(C(=O)OC)c1C | 2.73% | 29.1 µM [rising, single point] | 
60 | Cc1ccc(-n2nc3c(=O)n(CCCC(=O)NCc4ccccc4C)nc(C)c3c2C)cc1 | -43.7% | 29.1 µM [falling, single point] | 

— PubChem BioAssay AID2685 (National Center for Advancing Translational Sciences (NCATS), 2010)
